Laboratory results: PubChem BioAssay AID1224829 (NIAID, 2016)

- Assay: 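Genes needed for LPS-driven NF-kappaB p65 nuclear entry in mouse macrophages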 (follow-up of hits)
- Cells: mouse RAW264.7 G9 macrophage reporter cells
- Reagent: single siRNA against mouse genes, 100 nM
- Time to read-out: 2 days of siRNA knock-down, then 40 min of LPS before fixing
- Challenge: LPS (Salmonella minnesota R595) at 10 ng/ml
- Detection: 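Imaging of GFP-p65 after 40 min of LPS; nuclear over perinuclear ring intensity ratio, scaled to plate median and non-targeting control wells, given as z-score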
- Scale: p65 translocation z-score and gene median z-score, per vendor: higher = more nuclear NF-kappaB p65 after LPS
- Rule for the call: 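An siRNA is called active when the mean z-score of its two replicates is above 2 or below -2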
- Calls: active = changed p65 translocation (either direction); inactive = no clear change
The deposit covers about 3,800 reagents; below is a random part of them. 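Calls cover raised and lowered translocation; gene median uses one vendor's three siRNAs; qiagen siRNAs acted more weakly than ambion siRNAs.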 A number with no mark means an inactive call. The numbers tell different reagents against one gene apart.

gene knocked down	siRNA no.	siRNA vendor or control pool	p65 translocation z-score, replicate mean	p65 translocation z-score, replicate 1	p65 translocation z-score, replicate 2	gene median z-score, per vendor
Sftpd	1	ambion single siRNA	0.134	1.38	-1.11	-1.46
Sftpd	2	ambion single siRNA	-1.31	-0.81	-1.82	-1.46
Sftpd	3	ambion single siRNA	-3.49 (active)	-3.5	-3.48	-1.46
Sftpd	4	qiagen single siRNA	-1.27	-2.45	-0.094	-0.094
Sftpd	5	qiagen single siRNA	1.03	1.03		-0.094
Sftpd	6	qiagen single siRNA	-1.3	-2.76	0.168	-0.094
Cdh1	1	ambion single siRNA	-1.91	-1.91		-2.09
Cdh1	2	ambion single siRNA	-2.63 (active)	-2.02	-3.24	-2.09
Cdh1	3	ambion single siRNA	-2.78 (active)	-3.48	-2.09	-2.09
Cdh1	4	qiagen single siRNA	-3.89 (active)	-2.31	-5.47	-2.05
Cdh1	5	qiagen single siRNA	0.743	0.467	1.02	-2.05
Cdh1	6	qiagen single siRNA	-2.76 (active)	-1.8	-3.71	-2.05
Cmss1	1	ambion single siRNA	-2.73 (active)	-4.08	-1.37	-1.37
Cmss1	2	ambion single siRNA	1.32	-0.167	2.81	-1.37
Cmss1	3	ambion single siRNA	-2.12 (active)	-2.12		-1.37
Cmss1	4	qiagen single siRNA	0.187	0.187		1.34
Cmss1	5	qiagen single siRNA	1.34	0.204	2.47	1.34
Cmss1	6	qiagen single siRNA	2.97 (active)	2.97		1.34
Rlim	1	ambion single siRNA	-0.57	-0.169	-0.97	-2.55
Rlim	2	ambion single siRNA	-2.55 (active)	-1.99	-3.11	-2.55
Rlim	3	ambion single siRNA	-4.87 (active)	-4.92	-4.81	-2.55
Rlim	4	qiagen single siRNA	2.12 (active)	0.592	3.65	0.897
Rlim	5	qiagen single siRNA	1.29	1.2	1.38	0.897
Rlim	6	qiagen single siRNA	0.0416	-0.25	0.334	0.897

The list goes on, starting with the last 6 of the part before.
gene knocked down	siRNA no.	siRNA vendor or control pool	p65 translocation z-score, replicate mean	p65 translocation z-score, replicate 1	p65 translocation z-score, replicate 2	gene median z-score, per vendor
Rlim	1	ambion single siRNA	-0.57	-0.169	-0.97	-2.55
Rlim	2	ambion single siRNA	-2.55 (active)	-1.99	-3.11	-2.55
Rlim	3	ambion single siRNA	-4.87 (active)	-4.92	-4.81	-2.55
Rlim	4	qiagen single siRNA	2.12 (active)	0.592	3.65	0.897
Rlim	5	qiagen single siRNA	1.29	1.2	1.38	0.897
Rlim	6	qiagen single siRNA	0.0416	-0.25	0.334	0.897
Gtf2f1	1	ambion single siRNA	-3.05 (active)	-3.12	-2.98	-0.838
Gtf2f1	2	ambion single siRNA	-0.788	0.338	-1.91	-0.838
Gtf2f1	3	ambion single siRNA	1.03	1.83	0.238	-0.838
Gtf2f1	4	qiagen single siRNA	-1.02	-1.02		-1.02
Gtf2f1	5	qiagen single siRNA	-1.45	-1.13	-1.76	-1.02
Gtf2f1	6	qiagen single siRNA	1.27	1.04	1.5	-1.02
Actr3	1	ambion single siRNA	-1.63	-2.41	-0.845	-2.2
Actr3	2	ambion single siRNA	-4.4 (active)	-5.22	-3.59	-2.2
Actr3	3	ambion single siRNA	-1.54	-1.09	-1.99	-2.2
Actr3	4	qiagen single siRNA	1.56	1.16	1.97	0.966
Actr3	5	qiagen single siRNA	0.966	0.866	1.07	0.966
Actr3	6	qiagen single siRNA	-1.95	-1.98	-1.91	0.966
Hivep2	1	ambion single siRNA	-2.82 (active)	-3.51	-2.13	-1.91
Hivep2	2	ambion single siRNA	1.47	1.88	1.06	-1.91
Hivep2	3	ambion single siRNA	-1.94	-2.19	-1.68	-1.91
Hivep2	4	qiagen single siRNA	1.53	0.823	2.24	0.656
Hivep2	5	qiagen single siRNA	1.75	0.488	3.02	0.656
Hivep2	6	qiagen single siRNA	-0.951	-2.32	0.416	0.656
Tpp1	1	ambion single siRNA	1.64	1.95	1.33	0.638
Tpp1	2	ambion single siRNA	0.783	1.62	-0.0559	0.638
Tpp1	3	ambion single siRNA	-2.54 (active)	-3.13	-1.95	0.638
Raf1	1	ambion single siRNA	-2.09 (active)	-1.9	-2.29	-2.09
Raf1	2	ambion single siRNA	-0.336	0.0377	-0.71	-2.09
Raf1	3	ambion single siRNA	-3.08 (active)	-2.61	-3.54	-2.09
Raf1	4	qiagen single siRNA	0.75	1.43	0.0732	-0.00483
Raf1	5	qiagen single siRNA	-0.505	-0.926	-0.0829	-0.00483
Raf1	6	qiagen single siRNA				-0.00483
LOC269472 (retired record)	1	qiagen single siRNA	1.6	1.01	2.2	1.6
LOC269472 (retired record)	2	qiagen single siRNA	-1.94	-1.81	-2.08	1.6
LOC269472 (retired record)	3	qiagen single siRNA	4.04 (active)	3.22	4.87	1.6
Shc2	1	qiagen single siRNA	-0.189	-1.35	0.977	0.711
Shc2	2	qiagen single siRNA	1.93	0.764	3.09	0.711
Shc2	3	qiagen single siRNA	-0.352	-1.36	0.657	0.711
Map1a	1	qiagen single siRNA	0.991	1.25	0.728	-1.36
Map1a	2	qiagen single siRNA	-1.99	-2.47	-1.51	-1.36
Map1a	3	qiagen single siRNA	-2.67 (active)	-1.2	-4.14	-1.36
Ube2d3	1	ambion single siRNA	-1.6	-3.25	0.0587	-2.94
Ube2d3	2	ambion single siRNA	-2.53 (active)	-2.94	-2.12	-2.94
Ube2d3	3	ambion single siRNA	-5.83 (active)	-5.83		-2.94
Ube2d3	4	qiagen single siRNA	3.39 (active)	2.75	4.03	2.57
Ube2d3	5	qiagen single siRNA	-0.315	-0.258	-0.373	2.57
Ube2d3	6	qiagen single siRNA	2.59 (active)	2.38	2.8	2.57
